Data as given in US20130209515A1, “ANTI-INFECTIVE AND IMMUNOMODULATORY COMPOUNDS” (priority 2005, published 2013).
Some of these results come from one statement about several compounds together. Some ranges recur; such a range may be that of the whole group of compounds.

System: P. aeruginosa PA14
Test: PA14 systemic spread in BI mice (cfu in muscle and blood)
Format: in vivo
Details: treated at 6 hr BI, 24 hr (FIG. 27B)
Experimental: Furthermore, 6-FABA, 6CABA, and 4CABA efficacy in limiting PA14 systemic spread was assessed by comparing burn mice infected with PA14 and then treated with the compounds at 6 hr BI with control untreated BI mice. For each experimental set of n=18, 6 mice were sacrificed at 24 hr, and bacteria numbers were determined in muscle tissue underlaying or adjacent to the […] site and in blood. The inoculation procedure used in the thermal injury model greatly limits the initial delivery of bacteria to blood and muscle, so bacteria in these tissues reflect post-infection systemic spread.
In an experiment to determine the whether 6-fluoro-2-aminobenzoic acid (6FABA) affects the systemic spread of P. aeruginosa cells in a mouse burn/infection model, the results of which are shown in FIGS. 28A and 28B, 15 mice were treated with 100 μL of a 20 mM solution of 6-FABA 6 hrs or 12 hours post-burn and infection, and the PA14 cfu/mg of tissue (i.e., in blood and in muscle adjacent to the burn and infection) was determined at 24 hours and 36 hours post-burn.

Nc1cc(Cl)ccc1C(=O)O [4-CABA, 4-chloro-2-aminobenzoic acid]
difference in PA14 cfu in muscle adjacent to the burn and inoculation site compared to the control: 2-3 log
